Data: article PMC3594747
Results are given in words; binding and its absence hold for the method and conditions named. In cells and extracts the contact can be indirect. Some entries that bind do so weakly or less than the wild type.

By UniProt entry, the sequences of proteins in these tests, tags left out.
UniProt P38936: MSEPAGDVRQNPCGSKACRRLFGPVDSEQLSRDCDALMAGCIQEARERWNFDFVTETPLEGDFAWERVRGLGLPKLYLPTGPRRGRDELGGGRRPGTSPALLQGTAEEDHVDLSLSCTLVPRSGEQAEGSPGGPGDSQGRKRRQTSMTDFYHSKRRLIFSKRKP
UniProt Q9NZ56: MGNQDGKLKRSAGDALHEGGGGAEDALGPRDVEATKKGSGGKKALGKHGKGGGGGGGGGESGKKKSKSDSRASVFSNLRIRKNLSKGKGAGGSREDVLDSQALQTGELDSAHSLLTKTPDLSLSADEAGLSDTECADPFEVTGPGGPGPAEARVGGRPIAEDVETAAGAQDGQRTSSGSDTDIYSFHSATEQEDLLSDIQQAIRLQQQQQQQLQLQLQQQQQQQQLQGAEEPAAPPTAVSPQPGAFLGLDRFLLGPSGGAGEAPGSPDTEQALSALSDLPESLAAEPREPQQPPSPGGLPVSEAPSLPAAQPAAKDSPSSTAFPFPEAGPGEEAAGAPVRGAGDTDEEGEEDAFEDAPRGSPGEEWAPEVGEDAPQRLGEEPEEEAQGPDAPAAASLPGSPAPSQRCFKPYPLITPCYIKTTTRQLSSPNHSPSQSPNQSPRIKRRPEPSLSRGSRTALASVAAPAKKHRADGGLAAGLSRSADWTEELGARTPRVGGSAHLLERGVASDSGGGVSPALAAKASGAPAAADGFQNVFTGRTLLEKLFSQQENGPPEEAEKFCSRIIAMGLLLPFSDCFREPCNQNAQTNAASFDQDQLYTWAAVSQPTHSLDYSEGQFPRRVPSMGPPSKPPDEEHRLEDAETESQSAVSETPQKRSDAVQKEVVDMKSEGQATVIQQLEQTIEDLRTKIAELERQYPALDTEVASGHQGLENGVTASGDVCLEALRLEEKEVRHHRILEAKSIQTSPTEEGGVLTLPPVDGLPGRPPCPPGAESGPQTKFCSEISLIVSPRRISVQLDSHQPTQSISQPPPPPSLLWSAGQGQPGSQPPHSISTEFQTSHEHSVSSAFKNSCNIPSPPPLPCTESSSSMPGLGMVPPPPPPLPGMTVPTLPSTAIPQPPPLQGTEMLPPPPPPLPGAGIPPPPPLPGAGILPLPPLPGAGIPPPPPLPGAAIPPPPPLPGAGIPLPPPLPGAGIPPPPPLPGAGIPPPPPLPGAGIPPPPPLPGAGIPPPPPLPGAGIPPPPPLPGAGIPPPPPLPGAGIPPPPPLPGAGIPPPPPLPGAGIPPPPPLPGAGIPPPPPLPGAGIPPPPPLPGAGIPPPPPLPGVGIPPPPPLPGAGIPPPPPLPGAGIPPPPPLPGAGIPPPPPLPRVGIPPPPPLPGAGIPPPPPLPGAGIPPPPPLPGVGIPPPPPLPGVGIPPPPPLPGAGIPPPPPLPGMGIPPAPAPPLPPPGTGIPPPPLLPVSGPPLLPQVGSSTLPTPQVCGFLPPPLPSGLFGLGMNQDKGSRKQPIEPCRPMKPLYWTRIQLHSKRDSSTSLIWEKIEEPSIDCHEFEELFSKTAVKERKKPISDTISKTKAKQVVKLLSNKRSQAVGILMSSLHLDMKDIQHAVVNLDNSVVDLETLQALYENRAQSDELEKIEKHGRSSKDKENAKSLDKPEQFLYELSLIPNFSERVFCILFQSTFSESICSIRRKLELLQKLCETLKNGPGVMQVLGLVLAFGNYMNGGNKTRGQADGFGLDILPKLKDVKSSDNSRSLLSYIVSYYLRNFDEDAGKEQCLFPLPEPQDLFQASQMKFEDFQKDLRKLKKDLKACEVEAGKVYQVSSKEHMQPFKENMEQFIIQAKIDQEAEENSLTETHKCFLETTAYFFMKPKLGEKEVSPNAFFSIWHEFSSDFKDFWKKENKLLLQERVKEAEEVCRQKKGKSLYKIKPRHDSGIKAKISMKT

How the values were obtained:
[1] = biological target: cyclin-dependent kinase inhibitor p21 (human (endogenous in NARF2)) (UniProt P38936); assay: co-IP; NARF2 whole-cell lysates, cells with or without IPTG (p14ARF induction) for 24 hr; immunoprecipitated with anti-FMN2 or anti-p21 antibodies (normal rabbit IgG as control), precipitates analysed by western blot
[2] = biological target: Formin-2 (FMN2) (human (endogenous in NARF2)) (UniProt Q9NZ56); assay: as above

Row | binding [1] | binding [2] | Substance
1 | binds | – | Formin-2 (FMN2) (from UniProt Q9NZ56 1-1722)
2 | – | binds | cyclin-dependent kinase inhibitor p21 (from UniProt P38936 1-164)
